Results reported in article PMC12158189.
A weaker result is weaker than the reference pair of the same experiment.

Protein sequences, listed by entry. Tags and fused reporters are not part of them. Lines headed by an entry give the natural chain unless they say otherwise; changes in a name come on top.
UniProt P05067: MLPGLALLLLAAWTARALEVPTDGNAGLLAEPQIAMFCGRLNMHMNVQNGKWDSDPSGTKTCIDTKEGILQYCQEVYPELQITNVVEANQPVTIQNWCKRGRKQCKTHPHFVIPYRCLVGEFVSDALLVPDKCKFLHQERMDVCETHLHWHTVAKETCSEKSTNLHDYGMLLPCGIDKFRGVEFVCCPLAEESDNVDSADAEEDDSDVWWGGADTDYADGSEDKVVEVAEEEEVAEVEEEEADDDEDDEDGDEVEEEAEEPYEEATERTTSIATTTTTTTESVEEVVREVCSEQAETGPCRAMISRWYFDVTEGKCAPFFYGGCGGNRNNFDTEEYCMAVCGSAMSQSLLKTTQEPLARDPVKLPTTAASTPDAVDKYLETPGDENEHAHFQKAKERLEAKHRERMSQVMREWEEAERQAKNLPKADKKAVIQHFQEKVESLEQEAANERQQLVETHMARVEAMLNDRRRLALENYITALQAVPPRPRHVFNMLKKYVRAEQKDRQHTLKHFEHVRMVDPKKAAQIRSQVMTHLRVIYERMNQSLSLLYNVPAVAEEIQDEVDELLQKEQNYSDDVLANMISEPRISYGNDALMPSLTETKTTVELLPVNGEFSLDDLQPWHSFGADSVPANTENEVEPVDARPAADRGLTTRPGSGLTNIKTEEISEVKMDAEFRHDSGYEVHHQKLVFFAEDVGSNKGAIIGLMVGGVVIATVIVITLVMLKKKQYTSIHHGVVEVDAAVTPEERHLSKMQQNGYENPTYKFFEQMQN

Biological target: Aβ-42 (amyloid beta 1-42) (UniProt P05067)
Assay: G-FET (VDirac shift, Ids-t)
Conditions: full serum, smaller shift than TDN, SI caption says insulin; 5' NH2-C6; 1x PBS with 12.5 mM Mg2+, pH 7.0-7.4, room temperature; or full serum; probe immobilized on graphene FET; commercial protein; single-stranded DNA

AGTCTAGGATTCGGCGTGGGTTAATTTTTTGCTGCCTGTGGTGTTGGGGCGGGTGCG [ss-DNA aptamer (Aβ-42 aptamer)]
binding result: binds more weakly
